Paper PMC12431657, “Discovery and mechanistic insights of dibenzoylmethane as a broad spectrum inhibitor of coronavirus” (PLOS Pathogens, 2025)
Where a name gives a salt, the structure may show the parent alone. Read-outs that look alike come from different tables or passages of the source. Hit rate of the full screen: of about 3,300 compounds, about 60 (2%) showed an effect of 50% or more. This is one part of the list. Numbered stars: 1 amine (or outer) side, 2 acyl side, 3 side chain; on linkers, the order of the positions; unused ones are H or OH. Square brackets hold non-standard residues; d marks the D form. Peptide text beside a SMILES is read from it. X1 = CC[C@@H](C)[C@@H](O[*:1])C(=O)[*:2]; NMeVal(β-OH) = CN[C@H](C(=O)O)C(C)(C)O; NMeF = CN[C@@H](Cc1ccccc1)C(=O)O; aIle = CC[C@@H](C)[C@H](N)C(=O)O; NMeV = CN[C@H](C(=O)O)C(C)C

System: HCoV-OC43
Parameters: species or system RD; HTS, protection from HCoV-OC43 induced cell death, luminescent cell viability (CellCounting-Lite 2.0), inhibition rate

SMILES	OC43 Inhibition rate (24 h, 10 µM; inhibitor)	OC43 Inhibition rate (24 h, 10 µM, inhibitor) [%]
C[C@@]12C[C@@H](c3ccoc3)OC(=O)[C@@H]1CC[C@]1(C)[C@H]2[C@@H]2C=C[C@@]1(O)C(=O)O2 [Columbin]	0.3%	
COC1=C[C@@H]2[C@@H]3Cc4ccc(OC)c(O)c4[C@]2(CCN3C)CC1=O [Sinomenine]		-0.6
CCN1C[C@]2(C)CC[C@H](OC)[C@@]34C1[C@]1(OCO[C@@]15C[C@H](OC)[C@H]1C[C@]3(O)[C@@H]5[C@H]1OC)[C@@H](OC(C)=O)[C@H]24 [Deltaline]	-0.3%	
O=c1ccc2ccc3occc3c2o1 [Angelicin]	7.8%	
C/C=C1\C[C@@H](C)[C@](O)(CO)C(=O)OCC2=CC[N+]3([O-])CC[C@@H](OC1=O)[C@@H]23 (stereo partly shown) [Usaramine N-oxide]	1.1%	
CCN1C[C@]2(COC)CC[C@H](OC)[C@]34C1[C@H](C[C@H]23)[C@@]1(O)C[C@H](OC)[C@H]2C[C@@H]4[C@@H]1[C@H]2O [Talatisamine]	-0.2%	
COc1ccc(C=O)cc1OC [Veratraldehyde]	-1.2%	
CO[C@H]1CC[C@@H](O[C@H]2C[C@H]([C@]3(C)CC[C@]4(C[C@H](O)[C@@H](C)[C@@H]([C@@H](C)/C=C(\C)C(=O)[C@H](C)C[C@H](C)C(=O)O)O4)O3)O[C@]3(O[C@@H]([C@H]4O[C@@](O)(CO)[C@H](C)C[C@@H]4C)C[C@@H]3C)[C@@H]2C)O[C@@H]1C [Dianemycin]		-6.2
CC(C)=CCC/C(C)=C/CC/C(C)=C/CC[C@]1(C)CCc2cc(O)c(C)c(C)c2O1 [γ-Tocotrienol]	-0.3	
C[C@]12CC[C@@H](O)C[C@@H]1CC[C@@H]1[C@@H]2CC[C@]2(C)C(=O)CC[C@@H]12 [Androsterone]	0.6%	
C[C@]12CC[C@H](O)C[C@H]1CC[C@@H]1[C@@H]2[C@H](O)C[C@]2(C)[C@@H](c3ccc(=O)oc3)CC[C@]12O [Gamabufotalin]	12.1%	
CC1=C[C@@H]2C(=O)[C@]3(C=C(C)[C@H](O)[C@@]3(O)[C@@H]1O)[C@H](C)C[C@@H]1[C@H]2C1(C)C [20-Deoxyingenol]	3.1%	
CC(=O)OC(C)(C)/C=C/C(=O)[C@](C)(O)[C@H]1[C@H](O)C[C@@]2(C)[C@@H]3CC=C4[C@H](C[C@H](O)C(=O)C4(C)C)[C@]3(C)C(=O)C[C@]12C [Cucurbitacin B]	-1.7%	
C[C@H]1CCC[C@@H](O)CCCCCc2cc(O)cc(O)c2C(=O)O1 [Beta-Zearalanol]	0%	
N[C@@H](CNC(=O)C(=O)O)C(=O)O [Dencichine]	-0.9%	
CCC(=O)c1cc2c(cc1O)OCO2 [Kakuol]	-0.5%	
CC(C)=CCCC1=CC(=O)c2c(O)ccc(O)c2C1=O [Deoxyshikonin]	-3.1%	
CCN1C[C@]2(COC)[C@H](O)C[C@H](OC)[C@@]34[C@@H]5C[C@]6(O)[C@@H](OC)C[C@@](OC(C)=O)([C@H]5[C@H]6OC(=O)c5ccccc5)[C@@H]([C@H](OC)[C@H]23)[C@@H]14 [Indaconitine]	-0.3%	
C=C1[C@H](OC(=O)c2ccccc2)C[C@H]2[C@@H](/C=C(\C)C(=O)[C@@]3(OC(C)=O)C[C@H](C)[C@H](OC(=O)c4ccccc4)[C@@H]3[C@H]1OC(C)=O)C2(C)C [Euphorbia Factor L2]	4.9%	
Cc1cc(=O)[nH]c(=O)[nH]1 [6-Methyluracil]	-0.7	
COC1=C[C@@H]2[C@@H]3Cc4ccc(OC)c(O)c4[C@]2(CCN3C)CC1=O [Sinomenine hydrochloride]		0.1
Cc1ccc(C=O)cc1 [p-Tolualdehyde]	-0.1	
C[C@]12CCC(=O)C=C1CC[C@@H]1[C@@H]2C(=O)C[C@]2(C)C(=O)CC[C@@H]12 [Adrenosterone]	-0.1%	
O=Cc1ccc[nH]1 [Pyrrole-2-carboxaldehyde]	0.2	
O=C(O)CCCCCCCCCO [10-Hydroxydecanoic acid]	-0.1%	
O=c1ccc2c(O)c3ccoc3cc2o1 [Bergaptol]	-0.5%	

Single values from above.
OC43 Inhibition rate (24 h, 10 µM; inhibitor), CCN1C[C@]2(COC)CC[C@H](OC)[C@]34C1[C@H](C[C@H]23)[C@@]1(O)C[C@H](OC)[C@H]2C[C@@H]4[C@@H]1[C@H]2O [Talatisamine] is entered as -0.2%
OC43 Inhibition rate (24 h, 10 µM; inhibitor), O=c1ccc2ccc3occc3c2o1 [Angelicin] is entered as 7.8%
OC43 Inhibition rate (24 h, 10 µM; inhibitor), O=C(O)CCCCCCCCCO [10-Hydroxydecanoic acid] is entered as -0.1%

The list goes on.

SMILES	OC43 Inhibition rate (24 h, 10 µM; inhibitor)	OC43 Inhibition rate (24 h, 10 µM, inhibitor) [%]
COC(=O)C1=CCCNC1 [Guvacoline (hydrochloride)]	8.7%	
CC(C)=CCC[C@H](C(=O)O)[C@H]1CC[C@]2(C)C3=C(CC[C@@]12C)[C@@]1(C)CCC(=O)C(C)(C)[C@H]1CC3 [β-Elemonic acid]	-1.4%	
CC1(C)OC1COc1c2occc2cc2ccc(=O)oc12 (stereo not shown) [Oxyimperatorin]	2.8%	
CC[C@@H](C)[C@@H]1NC(=O)[C@@H]2CCCN2C(=O)[C@H](Cc2ccccc2)N(C)C(=O)[C@H](Cc2ccccc2)NC(=O)[C@H](C(C)C)N(C)C(=O)[C@@H]([C@H](C)CC)OC(=O)[C@H](C(C)(C)O)N(C)C(=O)[C@H](CC(C)C)NC(=O)[C@H](C(C)C)N(C)C1=O [Aureobasidin A] (cyclo(F[NMeF]P[aIle][NMeV]L[NMeVal(β-OH)][X1][NMeV]))	14.4%	
COc1cc(CCN)ccc1O [3-Methoxytyramine]		-0.3
C/C=C1/C[C@@H](C)[C@@](C)(O)C(=O)OCC2=CCN3CC[C@@H](OC1=O)[C@@H]23 [Senecionine]	-0.3%	
Nc1ncnc2c1ncn2[C@@H]1O[C@H](COP(N)(=O)O)[C@@H](O)[C@H]1O [Adenosine 5′-monophosphoramidate (sodium)]	-0.3%	
NC(=O)NCCCC[C@H](N)C(=O)O [L-Homocitrulline]	0.4	
C[C@]12CC[C@H](OS(=O)(=O)O)CC1=CC[C@@H]1[C@@H]2CC[C@]2(C)C(=O)CC[C@@H]12 [Dehydroepiandrosterone sulfate (sodium salt)]	0.3%	
CC[C@@]1(O)C(=O)OCc2c1cc1n(c2=O)Cc2cc3c(OC)cccc3nc2-1 [9-Methoxycamptothecin]	-2.3%	
O=C(O)c1cc2c(c3c1c([N+](=O)[O-])cc1ccccc13)OCO2 [Aristolochic acid B]	-0.8%	
CO[C@H]1CC[C@@H](O[C@H]2C[C@H]([C@]3(C)CC[C@]4(C[C@H](O)[C@@H](C)[C@@H]([C@@H](C)/C=C(\C)C(=O)[C@H](C)C[C@H](C)C(=O)O)O4)O3)O[C@]3(O[C@@H]([C@H]4O[C@@](O)(CO)[C@H](C)C[C@@H]4C)C[C@@H]3C)[C@@H]2C)O[C@@H]1C [Nanchangmycin]		-4.6
COC(=O)[C@]1(C)CC[C@]2(C)CC[C@]3(C)C4=CC=C5C(=CC(=O)C(O)=C5C)[C@]4(C)CC[C@@]3(C)[C@@H]2C1 [Pristimerin]	-3.5%	
COC1=CC(=O)O[C@@H](CCc2ccccc2)C1 [Dihydrokavain]	2.2%	
C[C@@H]1CC[C@@]2(NC1)O[C@H]1C[C@H]3[C@@H]4CC=C5C[C@@H](O[C@@H]6O[C@H](CO)[C@@H](O[C@@H]7O[C@@H](C)[C@H](O)[C@@H](O)[C@H]7O)[C@H](O)[C@H]6O)CC[C@]5(C)[C@H]4CC[C@]3(C)[C@H]1[C@@H]2C [Khasianine]	67.5%	
COc1cc(CNC(=O)CCCCCC(C)C)ccc1O [Nordihydrocapsaicin]	0.2%	
O=C(O)[C@H]1O[C@@H](Oc2cc3oc(-c4ccc(O)cc4)cc(=O)c3c(O)c2O)[C@H](O)[C@@H](O)[C@@H]1O [Scutellarin]	-2	
CCC1(O)C(=O)OCc2c1cc1n(c2=O)Cc2cc3cc(O)ccc3nc2-1 (racemic) [(±)-10-Hydroxycamptothecin]	-1.7	
C[C@@H]1CC[C@@]2(OC1)O[C@H]1C[C@H]3[C@@H]4CC=C5C[C@@H](O[C@@H]6O[C@H](CO)[C@@H](O[C@@H]7O[C@@H](C)[C@H](O[C@@H]8O[C@@H](C)[C@H](O)[C@@H](O)[C@H]8O)[C@@H](O)[C@H]7O)[C@H](O)[C@H]6O[C@@H]6O[C@@H](C)[C@H](O)[C@@H](O)[C@H]6O)CC[C@]5(C)[C@H]4CC[C@]3(C)[C@H]1[C@@H]2C [Formosanin C]	5.5%	
C[C@]12CCC(=O)C=C1CC[C@@H]1[C@@H]2[C@@H](O)C[C@]2(C)C(=O)CC[C@@H]12 [11-Beta-hydroxyandrostenedione]	0.5%	
CC(=O)OC[C@]12[C@H](OC(C)=O)[C@H](OC(C)=O)[C@@H]3[C@@H](OC(C)=O)[C@@]14O[C@@]3(C)COC(=O)c1cccnc1CCC(C)C(=O)O[C@@H]([C@H](OC(=O)c1ccccc1)[C@@H]2OC(C)=O)[C@]4(C)O (stereo partly shown) [Wilforine]	-0.7%	
C[C@]12CC[C@H]3[C@@H](CC[C@@H]4C[C@@H](O)CC[C@@]43CO)[C@@]1(O)CC[C@@H]2c1ccc(=O)oc1 [19-Hydroxybufalin]	2.7%	
O=c1cc(O)c2ccccc2o1 [4-Hydroxycoumarin]	0.9%	
NC(=O)c1cn([C@@H]2O[C@H](CO)[C@@H](O)[C@H]2O)c2ncnc(N)c12 [Sangivamycin]	3%	
CO[C@@H]1C[C@@H](C[C@H]2CC[C@H](C)[C@H]([C@@H](C)C(=O)O)O2)O[C@]2(O[C@](C)([C@H]3CC[C@@](C)([C@@H]4O[C@@H]([C@H]5O[C@@](O)(CO)[C@H](C)C[C@@H]5C)C[C@@H]4C)O3)C[C@H]2C)[C@@H]1C [Nigericin (sodium salt)]	8.7%	
COC1=CC(=O)O[C@@H](CCc2ccc3c(c2)OCO3)C1 [Dihydromethysticin]	-0.3%	
